{
  "source": "paper PMC11013284",
  "about": "“Chemoselective Synthesis and Anti-Kinetoplastidal Properties of 2,6-Diaryl-4H-tetrahydro-thiopyran-4-one S-Oxides: Their Interplay in a Cascade of Redox Reactions from Diarylideneacetones” (Molecules, 2024)",
  "system": "human diploid embryonic lung fibroblast hMRC-5SV2 cells",
  "test": "Cytotoxicity toward hMRC-5SV2 cells (resazurin)",
  "details": "hMRC-5 cytotoxicity versus antiparasitic IC50",
  "experimental": "The cytotoxicity of compounds was evaluated toward human diploid embryonic lung fibroblast hMRC-5SV2 cells, derived from fetal lung tissue and first described in 1970. hMRC-5SV2 cells were cultured in 96-well plates with five concentrations of the compound (64, 16, 4, 1, and 0.25 μM). After 3 days of incubation, the cell viability was assessed fluorimetrically after the addition of resazurin, and fluorescence was measured (λex = 550 nm, λem = 590 nm). The results were expressed as a percentage reduction in cell growth/viability compared to control wells, and a 50% cytotoxic concentration (CC50) was calculated. The reference cytotoxic drugs were tamoxifen or ivermectin. Additionally, toxicity toward mouse macrophages was qualitatively observed. Three concentrations were included (64, 16, and 4 µM), and the range of toxicity was ranked from the least toxic to the most toxic compound.",
  "data": [
    {"smiles": "O=C1CC(c2ccccn2)[S+]([O-])C(c2ccccn2)C1", "note": "(stereo not drawn) [3w, (±)-trans-2,6-Di-(pyridin-2-yl)-4H-tetrahydrothiopyran-4-one 1-oxide]", "values": [
      {"measurement": "selectivity index", "result": "acceptable"}
    ]},
    {"smiles": "O=C1CC(c2ccccn2)[S+]([O-])C(c2ccccn2)C1", "note": "(mixture of isomers) [3′w, (syn/anti)-cis-2,6-Di-(pyridin-2-yl)-4H-tetra-hydrothiopyran-4-one 1-oxide, as diastereoisomeric mixture]", "values": [
      {"measurement": "selectivity index", "result": "acceptable"}
    ]}
  ]
}
